No constants are given. Whether binding was seen depends on the method and setting. Some results given as binding are weak or reduced against the parent protein; the word gives no strength.
T1: PRP2 (human (endogenous in HeLa)) (UniProt O60231)
T1 sequence: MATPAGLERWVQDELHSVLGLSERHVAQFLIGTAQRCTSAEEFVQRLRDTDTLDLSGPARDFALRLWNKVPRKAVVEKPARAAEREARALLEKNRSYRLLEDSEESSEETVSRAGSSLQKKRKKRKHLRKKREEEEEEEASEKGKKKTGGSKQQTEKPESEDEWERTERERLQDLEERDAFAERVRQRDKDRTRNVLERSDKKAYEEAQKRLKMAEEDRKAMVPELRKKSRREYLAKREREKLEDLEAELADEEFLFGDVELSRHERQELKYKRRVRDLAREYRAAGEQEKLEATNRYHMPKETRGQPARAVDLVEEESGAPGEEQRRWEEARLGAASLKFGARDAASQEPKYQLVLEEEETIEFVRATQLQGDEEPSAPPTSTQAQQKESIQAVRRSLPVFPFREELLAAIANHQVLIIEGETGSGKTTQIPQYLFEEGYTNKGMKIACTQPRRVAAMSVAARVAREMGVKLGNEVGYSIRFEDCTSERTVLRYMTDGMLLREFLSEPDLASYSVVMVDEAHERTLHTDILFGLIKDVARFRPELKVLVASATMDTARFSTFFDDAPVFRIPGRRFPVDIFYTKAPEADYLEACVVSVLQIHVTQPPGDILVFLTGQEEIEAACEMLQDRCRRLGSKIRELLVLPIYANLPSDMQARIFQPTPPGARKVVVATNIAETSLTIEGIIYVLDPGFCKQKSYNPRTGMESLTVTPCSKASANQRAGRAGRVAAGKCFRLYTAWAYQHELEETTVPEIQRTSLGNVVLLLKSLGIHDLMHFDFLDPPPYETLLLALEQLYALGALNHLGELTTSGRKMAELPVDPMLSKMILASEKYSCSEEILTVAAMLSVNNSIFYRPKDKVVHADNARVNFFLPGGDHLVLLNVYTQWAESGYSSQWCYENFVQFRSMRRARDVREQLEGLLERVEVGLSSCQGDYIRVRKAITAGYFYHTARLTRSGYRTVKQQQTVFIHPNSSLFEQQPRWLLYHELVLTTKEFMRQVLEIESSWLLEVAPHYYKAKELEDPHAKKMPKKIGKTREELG

T2: CWC22 (human (endogenous in HeLa)) (UniProt Q9HCG8)
T2 sequence: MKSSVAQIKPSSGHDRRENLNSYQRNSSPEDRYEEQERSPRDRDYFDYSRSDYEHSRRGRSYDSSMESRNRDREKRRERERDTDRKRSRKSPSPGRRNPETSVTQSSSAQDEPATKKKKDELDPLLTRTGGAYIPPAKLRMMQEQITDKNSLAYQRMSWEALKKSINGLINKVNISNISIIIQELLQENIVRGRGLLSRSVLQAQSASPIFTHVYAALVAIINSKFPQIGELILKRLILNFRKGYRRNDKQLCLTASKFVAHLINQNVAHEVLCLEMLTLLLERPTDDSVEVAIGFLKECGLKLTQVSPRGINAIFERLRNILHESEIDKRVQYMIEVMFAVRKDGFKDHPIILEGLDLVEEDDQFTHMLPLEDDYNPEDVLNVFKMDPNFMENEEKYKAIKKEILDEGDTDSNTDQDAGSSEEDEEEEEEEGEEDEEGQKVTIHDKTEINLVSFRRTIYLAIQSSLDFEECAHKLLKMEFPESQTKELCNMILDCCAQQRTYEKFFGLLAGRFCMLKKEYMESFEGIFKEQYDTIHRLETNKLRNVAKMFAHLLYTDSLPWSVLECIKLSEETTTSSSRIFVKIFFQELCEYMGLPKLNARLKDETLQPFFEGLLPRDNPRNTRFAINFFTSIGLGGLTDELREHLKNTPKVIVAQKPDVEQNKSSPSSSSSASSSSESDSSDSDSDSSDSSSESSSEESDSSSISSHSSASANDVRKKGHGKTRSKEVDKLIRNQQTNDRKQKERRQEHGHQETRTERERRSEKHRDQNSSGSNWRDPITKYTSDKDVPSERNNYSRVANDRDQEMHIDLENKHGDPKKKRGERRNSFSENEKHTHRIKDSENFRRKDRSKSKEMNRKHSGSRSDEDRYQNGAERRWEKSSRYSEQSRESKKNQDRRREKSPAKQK

T3: PPIL4 (human (endogenous in HeLa)) (UniProt Q8WUA2)
T3 sequence: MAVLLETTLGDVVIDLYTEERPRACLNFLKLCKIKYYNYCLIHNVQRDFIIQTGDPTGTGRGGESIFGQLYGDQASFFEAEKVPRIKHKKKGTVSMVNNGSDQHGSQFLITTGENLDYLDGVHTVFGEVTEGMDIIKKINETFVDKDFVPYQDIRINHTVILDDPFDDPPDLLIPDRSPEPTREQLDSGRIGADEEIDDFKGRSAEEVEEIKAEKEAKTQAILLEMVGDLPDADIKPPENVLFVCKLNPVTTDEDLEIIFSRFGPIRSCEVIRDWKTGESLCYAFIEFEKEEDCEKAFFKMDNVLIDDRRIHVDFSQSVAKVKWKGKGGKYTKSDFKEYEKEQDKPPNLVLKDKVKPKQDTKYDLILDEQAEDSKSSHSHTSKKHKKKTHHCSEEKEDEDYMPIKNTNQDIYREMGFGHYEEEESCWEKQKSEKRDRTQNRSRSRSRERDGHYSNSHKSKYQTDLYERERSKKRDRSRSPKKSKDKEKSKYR


Experiments:
Experiment in all cases: cryo-EM structure; B^AQR spliceosome assembled on MINX-3×MS2 pre-mRNA in HeLa nuclear extract supplemented with recombinant IBC(K829A); MBP-MS2 affinity purification, glycerol gradient, cross-linked with 0.1% glutaraldehyde; core map about 2.9 Å
[1] = target: T1, PRP2 (human (endogenous in HeLa))
[2] = target: T2, CWC22 (human (endogenous in HeLa))
[3] = target: PRP8 (human (endogenous in HeLa)) (UniProt Q6P2Q9)
[4] = target: T3, PPIL4 (human (endogenous in HeLa))

binding [1]	binding [2]	binding [3]	binding [4]	Binder
binds	binds	binds	–	BUD13 (protein, UniProt Q9BRD0 1-619) MAAAPPLSKAEYLKRYLSGADAGVDRGSESGRKRRKKRPKPGGAGGKGMRIVDDDVSWTAISTTKLEKEEEEDDGDLPVVAEFVDERPEEVKQMEAFRSSAKWKLLGGHNEDLPSNRHFRHDTPDSSPRRVRHGTPDPSPRKDRHDTPDPSPRRARHDTPDPSPLRGARHDSDTSPPRRIRHDSSDTSPPRRARHDSPDPSPPRRPQHNSSGASPRRVRHDSPDPSPPRRARHGSSDISSPRRVHNNSPDTSRRTLGSSDTQQLRRARHDSPDLAPNVTYSLPRTKSGKAPERASSKTSPHWKESGASHLSFPKNSKYEYDPDISPPRKKQAKSHFGDKKQLDSKGDCQKATDSDLSSPRHKQSPGHQDSDSDLSPPRNRPRHRSSDSDLSPPRRRQRTKSSDSDLSPPRRSQPPGKKAAHMYSGAKTGLVLTDIQREQQELKEQDQETMAFEAEFQYAETVFRDKSGRKRNLKLERLEQRRKAEKDSERDELYAQWGKGLAQSRQQQQNVEDAMKEMQKPLARYIDDEDLDRMLREQEREGDPMANFIKKNKAKENKNKKVRPRYSGPAPPPNRFNIWPGYRWDGVDRSNGFEQKRFARLASKKAVEELAYKWSVEDM
–	–	binds	binds	CWC15 (protein, UniProt Q9P013 1-229) MTTAARPTFEPARGGRGKGEGDLSQLSKQYSSRDLPSHTKIKYRQTTQDAPEEVRNRDFRRELEERERAAAREKNRDRPTREHTTSSSVSKKPRLDQIPAANLDADDPLTDEEDEDFEEESDDDDTAALLAELEKIKKERAEEQARKEQEQKAEEERIRMENILSGNPLLNLTGPSQPQANFKVKRRWDDDVVFKNCAKGVDDQKKDKRFVNDTLRSEFHKKFMEKYIK

From publication PMC10208982, “Structural basis of catalytic activation in human splicing” (Nature, 2023)
